Source: PubChem BioAssay AID720504 (National Center for Advancing Translational Sciences (NCATS), 2013)
Screen size: about 360,000 compounds; about 10,000 (2.8%) were called active. The inconclusive results got no clear call from the source; some entries with a clear call stand among them for comparison. Calls come from the whole dose curve; as a rule, active = well fitted inhibition curve with a large enough effect; inconclusive = small, poorly fitted or top-dose-only effect; inactive = flat fitted curve, though single readings scatter. Potencies of inconclusive entries are doubtful fits and often do not repeat.

Chains of the proteins cited; added tags and fusions are not shown.
UniProt P53350, whole entry, looked up: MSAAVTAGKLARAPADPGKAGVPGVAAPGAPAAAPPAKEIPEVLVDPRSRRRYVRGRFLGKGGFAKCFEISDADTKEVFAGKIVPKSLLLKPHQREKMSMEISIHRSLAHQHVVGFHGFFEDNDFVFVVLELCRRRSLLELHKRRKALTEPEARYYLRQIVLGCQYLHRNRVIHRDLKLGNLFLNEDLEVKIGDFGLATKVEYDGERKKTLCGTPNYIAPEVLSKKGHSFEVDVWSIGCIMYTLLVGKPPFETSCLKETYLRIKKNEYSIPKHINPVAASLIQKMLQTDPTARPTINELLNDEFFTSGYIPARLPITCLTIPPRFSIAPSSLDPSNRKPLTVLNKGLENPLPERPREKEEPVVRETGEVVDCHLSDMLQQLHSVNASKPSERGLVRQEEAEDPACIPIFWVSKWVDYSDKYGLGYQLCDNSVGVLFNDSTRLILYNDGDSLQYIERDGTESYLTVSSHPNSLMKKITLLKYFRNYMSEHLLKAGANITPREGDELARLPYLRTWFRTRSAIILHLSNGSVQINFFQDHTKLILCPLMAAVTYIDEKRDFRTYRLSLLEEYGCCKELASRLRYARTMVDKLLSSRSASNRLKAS

target: Serine/threonine-protein kinase PLK1 (Homo sapiens) (UniProt P53350); experiment: qHTS for Inhibitors of PLK1-PDB (polo-like kinase 1 - polo-box domain): Primary Screen; settings: Plk1 PBD binding of FITC phosphopeptide, fluorescence polarization; note: nearly all actives have a fitted effect of over 65% in size; for max response, negative = inhibition: series mostly up to about 57 µM
% is set by controls: 0 for no effect and ±100 for the full control effect; potency is the fitted concentration of half-maximal effect.

SMILES	max response, negative = inhibition	Potency
CCn1c(SCC(=O)N(C(C)C)C(C)C)nnc1-c1cc2ccccc2cc1O	inactive: -5.98%	–
COc1cc2ccccc2cc1C(=O)N(CCN(C)C)c1nc2c(OC)ccc(OC)c2s1	–	inconclusive: 21.2 µM [inhibitor, single point]
CC(=O)Nc1ccc(NCc2ccc(-c3ccccc3)cc2)cc1	inactive: 9.21%	–
Cc1cc(NC(=O)c2cccc(S(=O)(=O)N3CCCCCC3)c2)n(-c2ccccn2)n1	inconclusive: -33.3% [inhibitor]	–
Cc1[nH]n(C(N)=S)c(=O)c1N=Nc1ccc(Cl)cc1Cl	–	inconclusive: 16.8 µM [inhibitor, partial curve]
COc1ccccc1N(Cc1cc(=O)[nH]c2ccccc12)C(=O)c1cccc([N+](=O)[O-])c1	–	active: 29.9 µM
CCc1ccccc1NC(=O)C1C2C=CC(O2)C1C(=O)O (configuration not stated)	inactive: -6.04%	–
COc1cccc(NC(=O)CCc2nnc3ccc(N4CCC(C)CC4)nn23)c1	–	active: 26.7 µM
Cc1ccccc1-c1coc2cc(O)ccc2c1=O	–	inconclusive: 26.7 µM [inhibitor, partial curve]
C=CC[C@H]1C=C[C@@H](C(C(=O)OC)C(=O)OC)CN1C(C)=O	–	active: 23.8 µM
O=C(O)C1CCN(C(=O)CSc2nc3cc(Cl)ccc3c(=O)n2Cc2ccccc2)CC1	inactive: -7.7%	–
O=[N+]([O-])c1ccc(/C=N\NS(=O)(=O)c2ccc(F)cc2)o1	inconclusive: -33.7% [inhibitor]	–
COc1ccc(CC(C)CC(=O)NCCc2ccc(OC)c(OC)c2)cc1 (configuration not stated)	inactive: -4.47%	–
CCCCC[C@@H]1C=C(C(=O)O)[C@H](c2ccc(Cl)cc2)N1S(=O)(=O)c1ccc(C)cc1	–	inconclusive: 21.2 µM [inhibitor, single point]
C/C(=N\Nc1ncc(Cl)cc1Cl)c1ccc(N2CCOCC2)cc1	inactive: -0.888%	–
O=C(c1cnn(C(=O)COc2ccc(Cl)cc2)c1)c1ccccc1O	inconclusive: -30.1% [inhibitor]	–
Cc1nnsc1Sc1cccc(C(F)(F)F)c1	–	inconclusive: 21.2 µM [inhibitor, single point]
CCOC(=O)N1CCC2(CC1)C(C#N)=C(N)Oc1c2c(C)nn1-c1cccc(Cl)c1	inconclusive: -31.4% [inhibitor]	–
O=C(O)c1ccccc1NS(=O)(=O)c1cccc(NS(=O)(=O)c2cc(Br)ccc2Br)c1	–	inconclusive: 26.7 µM [inhibitor, single point]

Some of the entries so far, bar-delimited.
SMILES | max response, negative = inhibition | Potency
CC(=O)Nc1ccc(NCc2ccc(-c3ccccc3)cc2)cc1 | inactive: 9.21% | –
Cc1[nH]n(C(N)=S)c(=O)c1N=Nc1ccc(Cl)cc1Cl | – | inconclusive: 16.8 µM [inhibitor, partial curve]
O=C(c1cnn(C(=O)COc2ccc(Cl)cc2)c1)c1ccccc1O | inconclusive: -30.1% [inhibitor] | –

(more compounds)

SMILES	max response, negative = inhibition	Potency
S=C(Nc1ccc(Cl)cc1Cl)NC1CCN(Cc2ccccc2)CC1	–	inconclusive: 16.8 µM [inhibitor, partial curve]
COc1ccc(-c2c(C(F)(F)F)[nH]n3c(=O)cc(-c4ccccc4)nc23)cc1	–	inconclusive: 26.7 µM [inhibitor, single point]
Cc1nn(C(C)C(=O)O)c(C)c1[N+](=O)[O-] (configuration not stated)	inactive: 3.84%	–
Cc1c(N2C(=O)/C(=C\C3CC=CCC3)SC2=S)c(=O)n(-c2ccccc2)n1C (configuration not stated)	–	inconclusive: 26.7 µM [inhibitor, partial curve]
O=C(CN1C(=O)c2ccccc2S1(=O)=O)Nc1ncc(Cl)cc1Cl	–	inconclusive: 29.9 µM [inhibitor, partial curve]
Cc1ccc(-c2noc(CN(C(=O)C34CC5CC(CC(C5)C3)C4)C(C)C)n2)cc1	inactive: 0.254%	–
Cc1cc(C(=S)N2CCOCC2)c(C)n1-c1ccc(F)cc1	–	inconclusive: 33.6 µM [inhibitor, partial curve]
CN(C)c1ccc(SC#N)cc1	–	inconclusive: 21.2 µM [inhibitor, partial curve]
CCOC(=O)c1c(C)oc2c1c1c(c3ccccc32)OCN(Cc2ccccn2)C1	–	inconclusive: 2.12 µM [inhibitor, full curve]
Cc1nn(C(=O)CCCn2cc([N+](=O)[O-])cn2)c(C)c1Cl	–	active: 21.2 µM
Cc1cc(N/N=C2\CC(C)CC(C)(C)C2)nc2ccccc12 (configuration not stated)	inactive: 0.359%	–
O=C(c1cc(-c2ccc(F)cc2)on1)N1CCN(c2ccc(F)cc2)CC1	–	active: 26.7 µM
O=C(O)CCCCCn1c(O)c(C=C2N=c3ccccc3=N2)sc1=S	inactive: -13.1%	–
COc1cc(Br)c(C(=O)c2nccc3cc(OC)c(OC)cc23)cc1OC	–	active: 5.97 µM
COc1ccc(C2=NCC(CSc3nccc(=O)[nH]3)S2)cc1 (configuration not stated)	–	inconclusive: 21.2 µM [inhibitor, partial curve]
CC[N+]1=C(C)C(C)(C)c2cc(C)ccc21	–	inconclusive: 23.8 µM [inhibitor, single point]
O=C(O)c1ccc(/C=N/NC(=O)c2cc(-c3ccc4c5c(cccc35)CC4)n[nH]2)cc1	–	inconclusive: 23.8 µM [inhibitor, single point]
CN(C)c1cccc(CNC(=O)c2ccc3nc([C@@H]4O[C@H](CO)[C@H](O)[C@H](O)[C@H]4O)[nH]c3c2)c1	inactive: -0.363%	–
